Assay results reported in publication PMC7006413.

Amino acid sequences for entries named in this document (tags omitted).
UniProt Q9NPI1: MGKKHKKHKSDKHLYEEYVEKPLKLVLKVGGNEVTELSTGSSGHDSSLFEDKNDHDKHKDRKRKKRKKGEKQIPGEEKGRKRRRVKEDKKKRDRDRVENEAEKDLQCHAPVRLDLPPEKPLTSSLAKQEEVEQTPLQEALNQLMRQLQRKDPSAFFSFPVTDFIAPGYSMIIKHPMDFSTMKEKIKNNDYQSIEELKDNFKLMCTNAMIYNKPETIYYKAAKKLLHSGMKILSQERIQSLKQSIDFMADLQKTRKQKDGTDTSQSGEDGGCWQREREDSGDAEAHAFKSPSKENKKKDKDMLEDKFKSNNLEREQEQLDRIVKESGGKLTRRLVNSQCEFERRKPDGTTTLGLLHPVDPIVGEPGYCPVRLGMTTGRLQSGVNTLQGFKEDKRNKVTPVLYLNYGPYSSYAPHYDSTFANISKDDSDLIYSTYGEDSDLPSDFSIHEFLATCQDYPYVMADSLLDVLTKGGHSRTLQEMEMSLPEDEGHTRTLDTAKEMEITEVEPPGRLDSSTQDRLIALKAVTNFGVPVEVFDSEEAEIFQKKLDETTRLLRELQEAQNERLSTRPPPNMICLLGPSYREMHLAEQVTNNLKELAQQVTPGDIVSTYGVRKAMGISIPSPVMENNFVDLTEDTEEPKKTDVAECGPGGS
UniProt P67809: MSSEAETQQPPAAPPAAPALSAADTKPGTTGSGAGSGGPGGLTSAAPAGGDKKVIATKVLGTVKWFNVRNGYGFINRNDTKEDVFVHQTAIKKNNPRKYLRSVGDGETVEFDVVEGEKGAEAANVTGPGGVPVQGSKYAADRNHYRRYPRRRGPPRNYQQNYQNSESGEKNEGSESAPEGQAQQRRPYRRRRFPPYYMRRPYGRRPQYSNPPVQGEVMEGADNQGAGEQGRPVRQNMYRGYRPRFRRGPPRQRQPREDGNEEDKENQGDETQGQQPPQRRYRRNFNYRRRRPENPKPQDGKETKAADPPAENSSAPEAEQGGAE

Molecular target: flag-BRD7 (UniProt Q9NPI1)
Assay: affinity purification with mass spectrometry; HEK293T transfected with pIRES2-EGFP-BRD7/3Flag for 48 h; extracts incubated overnight with Protein A/G beads carrying anti-flag or anti-IgG antibodies; 10% SDS-PAGE, Coomassie blue, in-gel trypsin digestion, nano-LC-MS/MS

binding: binds
Substance: Y-box binding protein-1 (YB1), endogenous (from UniProt P67809 1-324)

Results are given in words; binding and its absence hold for the method and conditions named. Binding seen in cells or lysates may run through a third protein. Here binding means that the protein was enriched with, or labelled near, the bait; the list need not be complete.
